PubChem BioAssay AID686938 – Drosophila RNAi Screening Center – 2013
Purpose: 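Knock-downs reducing store-operated calcium influx in Drosophila cells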 (primary screen). Cells: Drosophila S2R+ cells. Reagents: long dsRNA against Drosophila genes, about 0.25 µg dsRNA per well, roughly 10,000 cells. Timing: 5 days of knock-down before the calcium assay. Treatment: thapsigargin (SERCA pump blocker) to empty calcium stores; entry signal taken 4 min after adding it. Measurement: 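Per-well fluo-4 fluorescence in two replicates, unnormalised, measured in resting cells and 4 min after store depletion by the SERCA blocker thapsigargin; ratio of the two present in few wells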. Scale: calcium entry signal: higher = stronger calcium signal after store depletion; resting calcium signal: higher = higher resting calcium signal. Hit rule: 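Hit if the duplicate-averaged plate z-score for entry over resting signal is under −3; wells with weak total dye signal (Fmax z < −2) or more than 5 off-targets removed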. Calls: active = strongly reduced calcium entry; inactive = no strong reduction.
The deposit covers about 23,000 reagents; below is a random part of those that have a named target and a result. Of all reagents, 75 (0.33%) were called active. 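Raw plate signals without normalisation; calls rest on plate z-scores that were not deposited; ratio present for only 364 wells.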 A number with no mark means an inactive call. Names joined by + are all predicted targets of the reagent. The record does not give: the dose of the treatment.

Target gene	amplicon	calcium entry signal, replicate 1 (fluorescence units)	calcium entry signal, replicate 2 (fluorescence units)	resting calcium signal, replicate 1 (fluorescence units)	resting calcium signal, replicate 2 (fluorescence units)
Gpdh1	DRSC03336	3.45e7	5.06e7	1.76e7	2.44e7
Gpdh1	DRSC21666	4.64e7	3.54e7	2.49e7	1.74e7
CG18249	DRSC15318	2.62e7	3.46e7	1.19e7	1.43e7
GstT3	DRSC20541	4.84e7	5.17e7	2.30e7	2.17e7
MYPT-75D	DRSC10743	3.99e7	4.81e7	1.86e7	3.28e7
tow	DRSC10192	2.38e7	3.27e7	1.67e7	1.84e7
tow	DRSC23125	4.32e7	3.07e7	2.04e7	1.43e7
SMC1	DRSC16846	5.34e7	5.26e7	2.62e7	2.27e7
Pde1c	DRSC02421	3.50e7	4.27e7	1.84e7	1.84e7
Pde1c	DRSC02422	3.59e7	4.07e7	1.91e7	1.80e7
Pde1c	DRSC02423	3.71e7	5.05e7	1.91e7	2.27e7
Pde1c	DRSC02424	3.22e7	4.14e7	1.73e7	1.84e7
Pde1c	DRSC02425	2.69e7	1.91e7	1.27e7	9.79e6
Pde1c	DRSC02426	2.86e7	1.89e7	1.41e7	9.98e6
TfIIFbeta	DRSC16884	4.00e7	3.89e7	1.98e7	2.23e7
TfIIFbeta	DRSC21447	3.05e7	2.33e7	1.87e7	1.16e7
CG4115	DRSC15545	3.74e7	3.36e7	1.84e7	1.88e7
mirr	DRSC11369	2.01e7	2.53e7	1.13e7	1.17e7
CG10916	DRSC06012	3.84e7	3.67e7	1.83e7	1.78e7
Edem1	DRSC18573	3.78e7	4.25e7	1.66e7	2.11e7
CG33523	DRSC09814	2.19e7	3.45e7	1.09e7	1.51e7
CG33523	DRSC22155	3.25e7	5.07e7	1.48e7	2.52e7
AGO1	DRSC05912	2.51e7	2.47e7	1.06e7	1.21e7
Sos	DRSC03439	3.63e7	2.46e7	1.72e7	1.32e7
Gal	DRSC03134	3.42e7	3.59e7	1.73e7	1.62e7
Actn	DRSC17724	3.54e7	3.71e7	1.57e7	1.72e7
CG14125	DRSC10129	3.23e7	3.76e7	1.62e7	1.80e7
CG32983	DRSC22367	3.88e7	4.03e7	1.78e7	2.17e7
Inx6	DRSC20579	4.37e7	3.28e7	2.43e7	1.56e7
Cpr65Av	DRSC09727	2.90e7	5.85e7	1.40e7	2.17e7
CG15544	DRSC15082	4.21e7	6.09e7	2.13e7	2.52e7
CG17108	DRSC02576	3.31e7	3.56e7	1.45e7	1.85e7
CG17108	DRSC22214	4.52e7	6.53e7	2.16e7	3.33e7
CG10822	DRSC06005	5.80e7	5.21e7	2.64e7	2.53e7
CG10936	DRSC05669	3.74e7	5.25e7	1.86e7	2.45e7
CG10936	DRSC05670	3.92e7	5.00e7	1.72e7	2.70e7
CG10936	DRSC06018	4.77e7	4.92e7	2.28e7	2.35e7
CG18048	DRSC12573	3.59e7	2.71e7	1.90e7	1.40e7
Ir76b	DRSC10831	2.96e7	5.02e7	1.47e7	2.06e7
CG18870	DRSC04313	5.92e7	5.40e7	2.76e7	2.24e7
pkm	DRSC19674	3.23e7	4.18e7	1.68e7	2.00e7
Spn28Da	DRSC02162	3.47e7	5.17e7	1.60e7	2.16e7
CG34447	DRSC00741	4.22e7	4.77e7	1.82e7	2.06e7
CG1265	DRSC08288	3.90e7	3.07e7	2.13e7	1.52e7
lov	DRSC04665	2.82e7	3.09e7	1.45e7	1.60e7
nAChRbeta1	DRSC08097	4.32e7	4.36e7	2.42e7	1.97e7
nAChRbeta1	DRSC08728	5.51e7	4.93e7	3.70e7	1.63e7
CG32588	DRSC22285	2.83e7	4.26e7	1.43e7	2.42e7
CG5953	DRSC01546	1.79e7	3.30e7	1.15e7	1.55e7
CG5953	DRSC02914	4.92e7	3.60e7	2.32e7	1.92e7
eIF2gamma + Su(var)3-9	DRSC13081	2.53e7	2.01e7	1.28e7	1.07e7
eIF2gamma + Su(var)3-9	DRSC16873	3.44e7	4.69e7	1.58e7	2.00e7
CG11368	DRSC17778	3.22e7	3.80e7	1.60e7	1.81e7
CkIalpha	DRSC20231	2.61e7	3.95e7	1.20e7	1.88e7
CkIalpha	DRSC22609	2.33e7	2.04e7	1.36e7	9.71e6
CkIalpha	DRSC23308	3.08e7	2.12e7	1.54e7	9.97e6
Argk2	DRSC10483	4.12e7	3.77e7	1.75e7	1.50e7
Argk2	DRSC23349	3.00e7	3.02e7	1.55e7	1.51e7

Laid out differently: 7 of the entries above
Target gene,amplicon,"calcium entry signal, replicate 1 (fluorescence units)","calcium entry signal, replicate 2 (fluorescence units)","resting calcium signal, replicate 1 (fluorescence units)","resting calcium signal, replicate 2 (fluorescence units)"
TfIIFbeta,DRSC21447,3.05e7,2.33e7,1.87e7,1.16e7
CG4115,DRSC15545,3.74e7,3.36e7,1.84e7,1.88e7
mirr,DRSC11369,2.01e7,2.53e7,1.13e7,1.17e7
CG10916,DRSC06012,3.84e7,3.67e7,1.83e7,1.78e7
Edem1,DRSC18573,3.78e7,4.25e7,1.66e7,2.11e7
CG33523,DRSC09814,2.19e7,3.45e7,1.09e7,1.51e7
CG33523,DRSC22155,3.25e7,5.07e7,1.48e7,2.52e7
